{"source": "patent US20010033847A1", "about": "“DERMATOLOGIC PREPARATION” (priority 1996, published 2001)", "key": {"[1]": {"tested_on": "volar cubital region", "assay": "intensity of unpleasant odor at the applied region 1 hour after application", "format": "in vivo, human", "details": "number of subjects", "description": "To 900 μl of the mixture of glycerol, ethanol, and water in the ratio of 1:2:2 (by volume), was added 100 μl of the above-mentioned oil, and the resultant mixture was applied and spread onto the volar cubital region. The moist feeling after 3 minutes was evaluated. Also the intensity of unpleasant odor at the region was evaluated 1 hour after application."}, "[2]": {"tested_on": "volar cubital region", "assay": "feeling on use: moist feeling 3 minutes after application", "format": "in vivo, human", "details": "number of subjects", "description": "Feeling on use of the dermatologic preparation related to this invention was evaluated. To 900 μl of the mixture of glycerol, ethanol, and water in the ratio of 1:2:2 (by volume), was added 100 μl of the above-mentioned oil, and the resultant mixture was applied and spread onto the volar cubital region. The moist feeling after 3 minutes was evaluated."}}}
{"substance": "1,3-dioctanoyl-2-eicosapentaenoyl glycerol [Example 2]", "values": [{"measurement": "Unpleasant odor: none", "setting": "[1]", "value": 5}, {"measurement": "Unpleasant odor: slight", "setting": "[1]", "value": 0}, {"measurement": "Unpleasant odor: strong", "setting": "[1]", "value": 0}, {"measurement": "Unpleasant odor: weak", "setting": "[1]", "value": 0}, {"measurement": "Moist feeling: dry", "setting": "[2]", "value": 0, "unit": "subjects"}, {"measurement": "Moist feeling: moist", "setting": "[2]", "value": 5, "unit": "subjects"}, {"measurement": "Moist feeling: oily", "setting": "[2]", "value": 0, "unit": "subjects"}, {"measurement": "Moist feeling: tacky", "setting": "[2]", "value": 0, "unit": "subjects"}]}
